# Assay results as given in the supplement of paper PMC10849652.
# Chains of the proteins cited; added tags and fusions are not shown. Lines headed by an entry give the natural chain unless they say otherwise; changes in a name come on top.
# UniProt Q9NXS2: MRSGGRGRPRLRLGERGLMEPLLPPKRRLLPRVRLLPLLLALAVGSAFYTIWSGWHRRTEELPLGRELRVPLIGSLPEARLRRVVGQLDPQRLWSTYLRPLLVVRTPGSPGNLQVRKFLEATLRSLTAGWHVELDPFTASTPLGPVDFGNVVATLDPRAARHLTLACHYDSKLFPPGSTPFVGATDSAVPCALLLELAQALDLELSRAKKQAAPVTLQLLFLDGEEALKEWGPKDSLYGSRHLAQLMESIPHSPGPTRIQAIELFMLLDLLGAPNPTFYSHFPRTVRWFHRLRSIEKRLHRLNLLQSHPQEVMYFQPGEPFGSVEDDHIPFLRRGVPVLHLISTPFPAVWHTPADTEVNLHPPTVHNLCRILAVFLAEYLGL
# UniProt Q96QR8: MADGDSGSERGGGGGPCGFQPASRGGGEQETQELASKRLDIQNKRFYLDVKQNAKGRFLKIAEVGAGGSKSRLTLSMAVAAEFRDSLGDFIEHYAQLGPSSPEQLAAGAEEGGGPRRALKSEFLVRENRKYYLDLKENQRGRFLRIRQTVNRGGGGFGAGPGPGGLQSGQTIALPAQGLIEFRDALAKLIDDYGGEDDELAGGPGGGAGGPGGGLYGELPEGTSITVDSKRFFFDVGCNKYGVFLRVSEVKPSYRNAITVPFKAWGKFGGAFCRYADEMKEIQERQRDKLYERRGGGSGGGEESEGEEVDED
# UniProt Q96BW5: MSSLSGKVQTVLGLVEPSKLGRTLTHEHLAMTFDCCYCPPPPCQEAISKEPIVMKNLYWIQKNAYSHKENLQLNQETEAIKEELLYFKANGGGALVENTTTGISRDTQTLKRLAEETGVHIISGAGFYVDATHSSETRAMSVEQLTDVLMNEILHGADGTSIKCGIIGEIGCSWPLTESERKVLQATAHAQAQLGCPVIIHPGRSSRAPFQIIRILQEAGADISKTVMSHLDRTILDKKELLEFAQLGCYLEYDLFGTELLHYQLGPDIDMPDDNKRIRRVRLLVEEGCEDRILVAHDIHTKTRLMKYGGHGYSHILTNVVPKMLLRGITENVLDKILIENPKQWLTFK
# UniProt P18433: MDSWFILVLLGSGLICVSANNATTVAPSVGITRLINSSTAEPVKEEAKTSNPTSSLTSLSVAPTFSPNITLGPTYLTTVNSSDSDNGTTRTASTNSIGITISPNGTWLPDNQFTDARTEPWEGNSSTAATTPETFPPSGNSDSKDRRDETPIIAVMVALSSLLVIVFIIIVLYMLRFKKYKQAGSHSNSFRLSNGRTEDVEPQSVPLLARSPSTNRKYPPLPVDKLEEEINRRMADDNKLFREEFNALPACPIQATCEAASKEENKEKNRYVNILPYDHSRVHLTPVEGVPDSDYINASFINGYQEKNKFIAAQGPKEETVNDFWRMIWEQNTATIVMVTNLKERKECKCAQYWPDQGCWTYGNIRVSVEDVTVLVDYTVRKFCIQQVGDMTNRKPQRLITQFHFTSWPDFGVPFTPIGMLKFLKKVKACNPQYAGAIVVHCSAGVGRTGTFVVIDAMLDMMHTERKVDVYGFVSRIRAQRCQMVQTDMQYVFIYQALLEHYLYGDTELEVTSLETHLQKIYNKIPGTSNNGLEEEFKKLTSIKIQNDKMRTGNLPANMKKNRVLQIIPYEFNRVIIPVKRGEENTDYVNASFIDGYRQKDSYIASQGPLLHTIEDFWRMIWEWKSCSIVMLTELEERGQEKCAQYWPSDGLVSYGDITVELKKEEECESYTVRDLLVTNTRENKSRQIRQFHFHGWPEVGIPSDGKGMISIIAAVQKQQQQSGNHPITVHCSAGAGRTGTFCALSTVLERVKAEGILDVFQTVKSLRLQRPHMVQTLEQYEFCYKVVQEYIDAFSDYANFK
# UniProt Q9H974: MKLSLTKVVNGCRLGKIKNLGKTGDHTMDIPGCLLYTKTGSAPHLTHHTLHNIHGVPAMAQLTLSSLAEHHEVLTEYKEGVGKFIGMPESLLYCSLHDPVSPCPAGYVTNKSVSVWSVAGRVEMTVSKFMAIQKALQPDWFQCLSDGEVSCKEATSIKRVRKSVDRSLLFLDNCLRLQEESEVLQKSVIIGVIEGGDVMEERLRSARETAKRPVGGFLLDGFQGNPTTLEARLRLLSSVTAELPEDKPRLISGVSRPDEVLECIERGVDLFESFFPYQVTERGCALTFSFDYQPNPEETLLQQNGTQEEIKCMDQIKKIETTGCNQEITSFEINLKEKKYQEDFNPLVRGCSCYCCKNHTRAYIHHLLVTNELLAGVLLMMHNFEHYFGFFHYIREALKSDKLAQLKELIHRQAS
# UniProt O14818: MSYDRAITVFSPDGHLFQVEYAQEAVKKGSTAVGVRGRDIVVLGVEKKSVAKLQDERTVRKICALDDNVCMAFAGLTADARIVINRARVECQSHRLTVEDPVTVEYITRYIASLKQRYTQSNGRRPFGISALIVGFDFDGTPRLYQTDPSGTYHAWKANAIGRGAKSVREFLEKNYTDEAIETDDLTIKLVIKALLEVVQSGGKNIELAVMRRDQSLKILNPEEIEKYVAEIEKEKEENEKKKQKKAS
# UniProt Q06323: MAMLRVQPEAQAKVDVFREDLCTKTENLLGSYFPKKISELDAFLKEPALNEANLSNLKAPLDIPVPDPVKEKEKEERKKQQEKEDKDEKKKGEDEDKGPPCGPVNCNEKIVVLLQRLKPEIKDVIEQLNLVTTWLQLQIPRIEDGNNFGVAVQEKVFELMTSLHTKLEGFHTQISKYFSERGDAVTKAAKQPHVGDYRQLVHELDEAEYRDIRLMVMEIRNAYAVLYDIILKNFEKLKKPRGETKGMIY
# UniProt Q12974: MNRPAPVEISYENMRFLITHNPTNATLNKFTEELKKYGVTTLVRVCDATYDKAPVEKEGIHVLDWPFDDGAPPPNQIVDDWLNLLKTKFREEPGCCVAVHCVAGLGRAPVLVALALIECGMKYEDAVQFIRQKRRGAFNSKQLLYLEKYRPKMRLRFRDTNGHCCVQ
# The list shows a part of the results.
# Key:
# Assay in all cases: log2 fold change, soluble protein after heating vs DMSO (PISA); higher = thermal stabilisation; K562 cells, 10 uM, 30 min; active = over 0.2 and 3.5 SD of the protein, either way, in both replicates (recomputed)
# [1] = compound: CN1CCN(CCOc2cc(OC3CCOCC3)c3c(Nc4c(Cl)ccc5c4OCO5)ncnc3c2)CC1 [saracatinib]
# How it was run: (§1)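 For each measurement, 10 μM compound was applied for 30 min to K562 cells at 2×10^6 cells/mL. Aliquots were heated for 3 min across 48°C-58°C, pooled, and extracted in PBS with 0.5% NP-40 at 4°C; the supernatant after 21,000xg for 90 min was soluble protein. This was quantified by TMTpro 16plex LC-MS/MS with channel sums equalised, and thermal stability was reported relative to control samples from duplicates, on a log2 fold-change scale.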
# [2] = compound: CN1CCN(c2nc(C3=C(c4c[nH]c5ccccc45)C(=O)NC3=O)c3ccccc3n2)CC1 [sotrastaurin]
# How it was run: as §1
# [3] = compound: CN1CC[C@H](c2c(O)cc(O)c3c(=O)cc(-c4ccccc4Cl)oc23)[C@H](O)C1 [alvocidib]
# How it was run: as §1
# [4] = compound: CN1CCc2c(c3ccccc3n2Cc2ccc(C(=O)NO)cc2)C1 [Tubastatin A]
# How it was run: as §1
# [5] = compound: CNC(=O)C1=CC=CC=C1NC2=NC(=NC=C2Cl)NC3=C(C=C(C=C3)N4CCOCC4)OC
# How it was run: as §1
# [6] = compound: CNC(=O)c1ccc(Nc2ncc(C(F)(F)F)c(NCc3nccnc3N(C)S(C)(=O)=O)n2)cc1 [defactinib]
# How it was run: as §1
# [7] = compound: CNCc1ccc(-c2[nH]c3cc(F)cc4c3c2CCNC4=O)cc1 [rucaparib]
# How it was run: as §1
# [8] = compound: CNc1nc(-c2ccc3c(N)n[nH]c3c2)cc(N2C[C@@H](C(=O)NC3CCCCC3)CC[C@H]2C)n1
# How it was run: as §1
# [9] = compound: COC(=O)N[C@@H](C)CNc1nccc(-c2cn(C(C)C)nc2-c2cc(Cl)cc(NS(C)(=O)=O)c2F)n1 [encorafenib]
# How it was run: as §1
# [10] = compound: COC(=O)[C@H](CCSC)NC(=O)C1=C(C=C(C=C1)NC[C@H](CS)N)C2=CC=CC=C2
# How it was run: as §1
# [11] = compound: COC1=CC=C(C=C1)CN2C=CC3=C2C=C(C=C3)C(=O)NO
# How it was run: as §1
# [12] = compound: CON(C)C(=O)N1N=C(c2cc(F)ccc2F)S[C@@]1(CCCN)c1ccccc1 [filanesib]
# How it was run: as §1
# [13] = compound: CO[C@H]1C[C@@H]2CC[C@@H](C)[C@@](O)(O2)C(=O)C(=O)N2CCCC[C@H]2C(=O)O[C@H]([C@H](C)C[C@@H]2CC[C@H](n3cnnn3)[C@H](OC)C2)CC(=O)[C@H](C)/C=C(\C)[C@@H](O)[C@@H](OC)C(=O)[C@H](C)C[C@H](C)/C=C/C=C/C=C/1C [zotarolimus]
# How it was run: as §1
# [14] = compound: COc1cc(C(=O)O)ccc1NC(=O)[C@@H]1N[C@@H](CC(C)(C)C)[C@](C#N)(c2ccc(Cl)cc2F)[C@H]1c1cccc(Cl)c1F [idasanutlin]
# How it was run: as §1
# [15] = compound: COc1cc(Nc2ncc3c(n2)-c2ccc(Cl)cc2C(c2c(F)cccc2OC)=NC3)ccc1C(=O)O [alisertib]
# How it was run: as §1
# [16] = compound: COc1cc2nc(-c3cc(F)ccc3O)nc(N[C@@H]3CNC[C@H]3C(C)(C)O)c2cc1OC
# How it was run: as §1
# [17] = compound: COc1cc2ncnc(Nc3ccc(F)c(Cl)c3)c2cc1OCCCN1CCOCC1 [gefitinib]
# How it was run: as §1
# [18] = compound: COc1cccc2cc(-c3nc([C@H]4CC[C@H](C(=O)O)CC4)n4ncnc(N)c34)[nH]c12
# How it was run: as §1
# [19] = compound: CS(=O)(=O)CCNCc1ccc(-c2ccc3ncnc(Nc4ccc(OCc5cccc(F)c5)c(Cl)c4)c3c2)o1 [lapatinib]
# How it was run: as §1
# [20] = compound: CS(=O)(=O)N1CCN(Cc2cc3nc(-c4cccc5[nH]ncc45)nc(N4CCOCC4)c3s2)CC1 [pictilisib]
# How it was run: as §1
Target,log2 fold change [1],log2 fold change [2],log2 fold change [3],log2 fold change [4],log2 fold change [5],log2 fold change [6],log2 fold change [7],log2 fold change [8],log2 fold change [9],log2 fold change [10],log2 fold change [11],log2 fold change [12],log2 fold change [13],log2 fold change [14],log2 fold change [15],log2 fold change [16],log2 fold change [17],log2 fold change [18],log2 fold change [19],log2 fold change [20]
QPCTL (UniProt Q9NXS2),inactive: -0.059,inactive: 0.039,inactive: 0.025,inactive: 0.116,inactive: 0.062,inactive: -0.019,inactive: 0.135,inactive: -0.007,inactive: 0.008,inactive: 0.007,inactive: -0.072,inactive: 0.075,inactive: 0.082,inactive: -0.023,inactive: -0.089,inactive: -0.07,inactive: -0.004,inactive: 0.028,inactive: 0.132,inactive: -0.011
PURB (UniProt Q96QR8),inactive: 0.07,inactive: 0.018,inactive: 0.363,inactive: 0.013,inactive: 0.025,inactive: 0.12,inactive: 0.292,inactive: 0.086,inactive: 0.027,inactive: 0.081,inactive: -0.242,inactive: 0.448,inactive: -0.081,inactive: 0.152,inactive: -0.066,inactive: -0.068,inactive: -0.054,inactive: -0.119,inactive: 0.123,inactive: -0.227
PTER (UniProt Q96BW5),inactive: 0.025,inactive: 0.018,inactive: -0.011,inactive: -0.029,inactive: -0.028,inactive: 0,inactive: -0.039,inactive: -0.042,inactive: 0,inactive: 0.007,inactive: 0,inactive: -0.067,inactive: -0.011,inactive: 0.005,inactive: -0.014,inactive: -0.017,inactive: -0.005,inactive: 0.015,inactive: -0.002,inactive: 0.023
PTPRA (UniProt P18433),inactive: 0.014,inactive: 0.029,inactive: -0.093,inactive: 0.007,inactive: 0.036,inactive: -0.06,inactive: 0.052,inactive: -0.038,inactive: 0.026,inactive: -0.017,inactive: -0.056,inactive: 0.036,inactive: 0.016,inactive: -0.003,inactive: -0.028,inactive: 0.073,inactive: 0.035,inactive: 0.012,inactive: 0.03,inactive: 0.206
QTRT2 isoform 4 (UniProt Q9H974),inactive: 0.025,inactive: 0.04,inactive: -0.03,inactive: -0.009,inactive: -0.028,inactive: -0.031,inactive: 0.036,inactive: -0.026,inactive: -0.013,inactive: -0.003,inactive: -0.052,inactive: -0.034,inactive: -0.029,inactive: -0.011,inactive: 0.031,inactive: 0.005,inactive: -0.003,inactive: 0.09,inactive: 0.032,inactive: 0
PSMA7 (UniProt O14818),inactive: -0.02,inactive: 0.029,inactive: 0.012,inactive: -0.034,inactive: 0.02,inactive: 0.03,inactive: 0.013,inactive: -0.01,inactive: 0.025,inactive: -0.012,inactive: -0.06,inactive: 0.082,inactive: 0.007,inactive: -0.003,inactive: -0.088,inactive: -0.023,inactive: -0.01,inactive: -0.011,inactive: 0.024,inactive: 0.056
PSME1 (UniProt Q06323),inactive: -0.017,inactive: 0.003,inactive: -0.083,inactive: -0.023,inactive: 0.011,inactive: -0.012,inactive: -0.119,inactive: -0.02,inactive: 0.037,inactive: -0.011,inactive: -0.026,inactive: -0.092,inactive: 0.021,inactive: -0.014,inactive: -0.049,inactive: -0.014,inactive: 0.006,inactive: 0.009,inactive: -0.078,inactive: -0.011
PTP4A2 (UniProt Q12974),inactive: -0.038,inactive: 0.107,active: -0.332,inactive: 0.057,inactive: -0.1,inactive: -0.213,inactive: -0.143,inactive: -0.066,inactive: 0.008,inactive: 0.117,inactive: 0.078,inactive: -0.062,inactive: -0.022,inactive: -0.079,inactive: -0.055,inactive: 0.033,inactive: -0.007,inactive: -0.11,inactive: -0.078,–
